For 61 compounds, cell number change and AC50 results are on record in PubChem BioAssay AID2685 (National Center for Advancing Translational Sciences (NCATS), 2010).

This assay can be described thus: qHTS Assay for Lipid Storage Modulators in Drosophila S3 Cells.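 For cell number change: cells counted by Cell Tracker Red CMTPX staining in the red channel.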 The following applies: BODIPY lipid droplet fluorescence, 18-24 h; for cell number change: measured here: cell count max response, cells fed with added oleic acid. In a few lines: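 Drosophila S3 cells got compounds at several concentrations plus oleic acid (400 uM solution). Laser-scanning cytometry with 488 nm excitation read lipid droplets at 500-530 nm and cells at 575-640 nm. Percent activity was relative to 20 uM Triacsin C.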
Background: qHTS replaces the single test concentration by a dilution series.

Setting [1] is: measured here: cell number channel AC50, cells fed with added oleic acid.
[2] abbreviates: measured here: lipid fluorescence (Fed channel) AC50, cells fed with added oleic acid.

The other results are listed elsewhere or left out. The main result of the screen is listed elsewhere. These columns were measured beside it and carry no call. Compounds called inactive in the main read-out are mostly missing here. The note in brackets gives the kind of curve behind each potency; many fits are weak.

As to `CC(C)Oc1ccccc1/C=N/NC(=O)C1CCCC1`, the cell number change was determined as 38.8%. Still for that read-out and setting: to `O=[N+]([O-])c1ccc(C[n+]2cc(-c3ccc(Cl)c(Cl)c3)n3c2CCCCC3)cc1` belongs 29.9%.

One may read the AC50 as the concentration at which the activity in the assay is half-maximal. Higher therefore signals activity only at high concentration. On to `CCn1c(SCC(=O)c2[nH]c(C)c(C(C)=O)c2C)nnc1-c1ccncc1`, for which the cell number change was found to be 39.3%. Further, the AC50 under setting [1] was 7.31 µM [rising, partial curve, poor fit]. In addition, under setting [2], the AC50 was 20.6 µM [rising, partial curve]. For the compound `O=[N+]([O-])c1ccc2c(c1N1CCCCC1)=NC1(CCCCC1)[N+]=2[O-]`, the cell number change came out at 7.58%. The concentration at half-maximal activity (AC50) under setting [1] was 0.82 µM [falling, single point]. In addition, under setting [2], the AC50 is 0.731 µM [falling, single point]. `COc1ccc(-c2nn(-c3ccccc3)cc2C#N)cc1`: the half-maximal activity concentration (AC50) by setting is: under setting [1], 6.51 µM [rising, single point]; under setting [2], 6.51 µM [rising, partial curve].

Regarding `CN(CCCN1CCOCC1)C(=O)c1cc(COc2ccc(F)cc2F)on1`, the concentration at half-maximal activity (AC50) under setting [2] is 5.17 µM [falling, single point].

Regarding `CCOC(=O)C1=C(N)Oc2ccc3ccccc3c2C1c1cccc(O)c1` (centres undefined), the cell number change was -48.7%. Under setting [1], the half-maximal activity concentration (AC50) is 18.4 µM [falling, single point]. Besides, the AC50 under setting [2] is 23.1 µM [falling, single point]. Consider `Cn1c(N)c(C(=O)COC(=O)C2CCCCC2)c(=O)n(C)c1=O`, for which the cell number change amounted to 0.831%. The half-maximal activity concentration (AC50) under setting [2] was 6.51 µM [falling, single point].

Turning to `O=C(CNC(=O)c1ccco1)NCC(=O)OCc1ccc(F)cc1`, the cell number change was -2.63%. As to `COc1cccc(NC(=O)c2ccc(C(=O)c3ccccc3)o2)c1`, the cell number change came to 2.26%. Besides, the AC50 under setting [1] was 0.731 µM [falling, full curve]. Under setting [2], the AC50 is 0.58 µM [falling, full curve]. Take `CCC(C)C(NC(=O)C1CCC(C)CC1)C(=O)NC(CCSC)C(=O)OC` (centres undefined): the cell number change is -37.8%. In addition, the AC50 under setting [1] is 0.731 µM [falling, full curve]. Besides, under setting [2], the AC50 is 29.1 µM [falling, single point]. `CCCCN(C(=O)c1ccc2c(c1)S(=O)(=O)N=C1CCCCCN12)c1c(N)n(CCCC)c(=O)[nH]c1=O`: the cell number change was -1.21%. In addition, the AC50 under setting [2] is 18.4 µM [rising, partial curve].

As for `CN1C(=O)C(CC(=O)NCC2CCCCC2)SC1=Nc1ccccc1` (centres undefined), the cell number change was -13.3%. Besides, under setting [2], the half-maximal activity concentration (AC50) was 32.6 µM [falling, single point]. For `COc1ccc(C2CC(c3ccc(OC)cc3)n3nc(NC(=O)c4cccs4)nc3N2)cc1` (centres undefined), the cell number change turned out to be 0.996%. Further, the AC50 under setting [1] is 6.51 µM [rising, single point]. The half-maximal activity concentration (AC50) under setting [2] was 6.51 µM [rising, partial curve]. For the compound `O=C(NCCCSc1ccccc1)c1cc(Br)ccc1O`, the cell number change was determined as 22.2%. Regarding `Cc1[nH]c(=O)[nH]c1CN1CCCCC1`, the cell number change was found to be 8.78%. Further, the AC50 under setting [2] is 0.13 µM [rising, full curve, poor fit]. For `CCCn1nnnc1-c1ccc(Cl)cc1`, the cell number change worked out at 6.64%. Further, the concentration at half-maximal activity (AC50) under setting [2] is 3.66 µM [rising, full curve, poor fit]. For `C=CCOc1ccc(/C=C2/C(=O)ON=C2C)cc1OCC`, the cell number change was determined as 34%. The AC50 under setting [1] is 9.2 µM [rising, partial curve, poor fit]. For `CCC1CCCCN1C(=O)COC(=O)c1cc(Br)ccc1Cl` (centres undefined), the cell number change is 24.9%. Also, the concentration at half-maximal activity (AC50) under setting [2] was 29.1 µM [rising, single point].

Regarding `COc1ccc(CCC(=O)NCC2CCCCC2)cc1OC`, the cell number change was 22.3%. Further, the AC50 under setting [1] is 0.00517 µM [rising, full curve, poor fit]. Consider `CN(Cc1ccccc1)C(=O)Cn1cccc1C(=O)c1ccccc1`, for which the cell number change is -40.1%. Moreover, the AC50 under setting [1] is 3.26 µM [falling, partial curve]. For the same compound, the AC50 under setting [2] is 1.84 µM [falling, full curve]. `O=C(CSc1nc(-c2cccs2)cc(C(F)(F)F)n1)NCc1ccccc1`: the cell number change was 21.7%. The concentration at half-maximal activity (AC50) under setting [1] was 0.0184 µM [rising, full curve, poor fit]. Further, the AC50 under setting [2] was 2.91 µM [rising, partial curve, poor fit]. Take `Cc1ccccc1OCc1nc2ccccc2c(=O)n1/N=C/c1c[nH]c2ccccc12`: the cell number change was found to be 2.48%. For the same compound, under setting [2], the AC50 was 0.92 µM [rising, full curve]. Take `CC(C)c1onc(C(=O)N2CCCCC2)c1[N+](=O)[O-]`: the AC50 under setting [2] is 9.2 µM [falling, partial curve, poor fit].

In the case of `O=C(c1n[nH]c(=O)c2ccccc12)N1CCN(c2ccccc2Cl)CC1`, the cell number change is -12%. In addition, under setting [2], the AC50 is 9.2 µM [rising, partial curve, poor fit]. With `O=C(NCCN1C(=O)S/C(=C\c2ccc(OC(F)F)cc2)C1=O)C1=COCCO1`, the AC50 under setting [1] is 2.91 µM [rising, partial curve]. For the compound `O=C1CCCC/C1=C/Nc1cccc(C(F)(F)F)c1`, the cell number change was -32.7%. Also, the AC50 under setting [1] is 0.58 µM [falling, full curve]. Moreover, the concentration at half-maximal activity (AC50) under setting [2] is 0.651 µM [falling, full curve]. In the case of `CNC(=O)NC(=O)CSc1nnc(-c2ccco2)n1-c1ccccc1`, the cell number change was -2.81%.

On to `O=S(=O)(c1ccc(N2CCCC2)nc1)N1CCCC1`, for which, under setting [2], the AC50 is 6.51 µM [rising, partial curve, poor fit]. Regarding `Cc1cc(C)cc(NC(=O)CN2C(=O)COc3ccc(S(=O)(=O)N4CCCC4)cc32)c1`, the cell number change is -19.1%.

Turning to `O=C(NCc1ccc(F)cc1)C1CCCN(S(=O)(=O)c2ccc(-n3cnnn3)cc2)C1` (centres undefined), the cell number change is 23.9%. Regarding `Cc1ccccc1OCC(=O)NCCNC(=O)c1cccnc1`, the cell number change was -6.67%. Take `O=C1C2C3C=CC(C3=C3CCCCC3)C2C(=O)N1Cc1ccccc1` (centres undefined): the concentration at half-maximal activity (AC50) is, setting by setting: under setting [1], 0.13 µM [falling, full curve, poor fit]; under setting [2], 0.651 µM [falling, single point]. Turning to `O=C(Cn1nc(C(=O)O)c2ccccc2c1=O)Nc1ccc2c(c1)OCO2`, the cell number change was -0.374%. In the case of `CC(C)Nc1nc(Oc2ccc(=O)n(-c3ccccc3)n2)nc(N(C)C)n1`, the cell number change is -3.04%. In the case of `COc1ccc(Cl)cc1S(=O)(=O)N1CCCC(C(=O)N2CCCC2)C1` (centres undefined), the cell number change was -3.18%. On to `CC1CCCCN1C(=O)CSc1nnc(-c2ccco2)o1` (centres undefined), for which the cell number change was found to be 13.8%. The AC50 under setting [2] was 11.6 µM [rising, single point]. On to `COc1ccc(S(=O)(=O)N2CCCCC2)cc1C(=O)Nc1cc(C)on1`, for which the cell number change is -16.2%. In addition, under setting [2], the half-maximal activity concentration (AC50) was 8.2 µM [falling, partial curve].

`Cc1nn(Cc2ccccc2Cl)c2sc(C(=O)OC3CCCC3=O)cc12` (centres undefined): the cell number change is 98.6%. In addition, the AC50 under setting [1] was 16.4 µM [rising, partial curve]. For the same compound, under setting [2], the AC50 was 6.51 µM [rising, single point]. With `O=C(O/N=C(/c1ccccc1)c1ccncc1)c1cccc(F)c1`, the cell number change was 17.4%. Also, the half-maximal activity concentration (AC50) under setting [2] was 2.06 µM [rising, single point].

In the case of `CCN(C(=O)CSc1nnc(-c2ccco2)n1C)c1c(N)n(Cc2ccccc2)c(=O)[nH]c1=O`, the cell number change was -15.9%. In addition, the concentration at half-maximal activity (AC50) under setting [2] is 0.146 µM [falling, full curve]. Turning to `COc1cc2cc(CN(Cc3nnnn3C3CCCC3)C3CCCC3)c(=O)[nH]c2cc1OC`, the cell number change came out at 41.1%. In addition, the AC50 under setting [1] is 23.1 µM [rising, single point].

Turning to `CC1CCN(S(=O)(=O)c2cccc(C(=O)NC3CCCC3)c2)CC1`, the cell number change is -14.9%. The half-maximal activity concentration (AC50) under setting [1] is 0.103 µM [rising, full curve, poor fit]. For `[O-]/[N+](=C\c1ccc(F)cc1)c1ccccc1`, the cell number change is 2.38%. The AC50 under setting [2] is 0.0058 µM [falling, full curve, poor fit]. With `CCC1(CC)NC(=O)N(CC(=O)OCC(=O)Nc2ccc(C(F)(F)F)cc2)C1=O`, the cell number change was determined as 1.16%. The AC50 under setting [2] was 4.61 µM [falling, partial curve]. For `O=C1CCC(=O)N1c1ccc(CSc2nnnn2C2CCCCC2)cc1`, the cell number change was -6.39%. On to `Cc1ccc(C(=O)CCC(=O)N2CCC(C(N)=O)CC2)cc1`, for which the cell number change is -10.7%. The concentration at half-maximal activity (AC50) under setting [1] is 6.51 µM [falling, partial curve, poor fit]. Turning to `O=C(Nc1ccnn1C1CCN(C/C=C/c2ccccc2)CC1)C1CCCC1`, the cell number change turned out to be 7.41%. The concentration at half-maximal activity (AC50) under setting [2] is 0.00517 µM [falling, full curve, poor fit].

As to `N#CCSc1nc2c(c(=O)n1Cc1ccccc1)C1(CCCC1)Cc1ccccc1-2`, the cell number change was 38.6%. In addition, the AC50 under setting [1] was 0.411 µM [rising, full curve, poor fit]. Moreover, under setting [2], the AC50 was 2.59 µM [rising, partial curve]. For the compound `Cc1cc2occ(CC(=O)N(C)CC(=O)Nc3ccc(F)cc3)c2cc1C`, the cell number change was found to be 42%. Further, under setting [1], the AC50 is 7.31 µM [rising, partial curve]. For `COc1ccc(OC)c(NC(=O)CCN2CCN(c3ccccc3F)CC2)c1`, the cell number change was -1.52%. `C=CCOc1cccc(C2C(C(=O)c3ccco3)=C(O)C(=O)N2Cc2ccncc2)c1` (centres undefined): the cell number change came to 16.7%. Also, under setting [2], the concentration at half-maximal activity (AC50) was 16.4 µM [rising, single point].

On to `Cc1ccc(C(=O)N2CCCC2)cc1S(=O)(=O)N1CCCCC1`, for which the cell number change turned out to be 20.5%. The concentration at half-maximal activity (AC50) under setting [2] is 5.8 µM [rising, single point]. For `CC(C)c1ccc2nc(NC(=O)C3CC3)sc2c1`, the cell number change is -26.5%. The half-maximal activity concentration (AC50) under setting [2] is 0.82 µM [rising, single point].

`CS(=O)(=O)N(CC(=O)Nc1ccccc1C(=O)N1CCOCC1)c1ccc(Cl)cc1`: the cell number change is 1.52%. Further, the AC50 under setting [2] was 6.51 µM [falling, single point]. Turning to `O=C(COc1ccc(Cl)cc1)NN=C1CCCCCCC1`, the half-maximal activity concentration (AC50) under setting [2] was 1.41 µM [rising, partial curve, poor fit].

Take `CC(C)OC(=O)c1cc(NC(=S)Nc2ccc([N+](=O)[O-])cc2)cc(C(=O)OC(C)C)c1`: the cell number change is -29.1%. Moreover, the concentration at half-maximal activity (AC50) under setting [2] is 20.6 µM [falling, single point].

Consider `Cn1c(=O)c2c(nc(SCC(=O)NCc3ccco3)n2C)n(C)c1=O`, for which the cell number change worked out at 20.6%. Further, the half-maximal activity concentration (AC50) under setting [2] was 29.1 µM [falling, single point]. Take `O=C(Oc1ccc(-c2nnco2)cc1)c1ccc(Br)o1`: the cell number change was 22.6%.

On to `O=C(COC(=O)CCc1nc2ccccc2c(=O)[nH]1)Nc1ccccc1OC(F)F`, for which the cell number change is -41.6%. For the same compound, the concentration at half-maximal activity (AC50) under setting [1] is 20.6 µM [falling, single point]. Moreover, the AC50 under setting [2] was 18.4 µM [falling, partial curve]. On to `Cc1nn2c(NCCCn3ccnc3)cc(C(C)C)nc2c1-c1ccccc1`, for which the cell number change is -20%.
